Article PMC4960310
No constants are given. Whether binding was seen depends on the method and setting. Binding calls can cover weak binding; strength is not graded here.

By UniProt entry, the sequences of proteins in these tests, tags left out. Where a name states a change or a piece, a line headed by the entry shows the natural chain unless it says otherwise.
UniProt O54864: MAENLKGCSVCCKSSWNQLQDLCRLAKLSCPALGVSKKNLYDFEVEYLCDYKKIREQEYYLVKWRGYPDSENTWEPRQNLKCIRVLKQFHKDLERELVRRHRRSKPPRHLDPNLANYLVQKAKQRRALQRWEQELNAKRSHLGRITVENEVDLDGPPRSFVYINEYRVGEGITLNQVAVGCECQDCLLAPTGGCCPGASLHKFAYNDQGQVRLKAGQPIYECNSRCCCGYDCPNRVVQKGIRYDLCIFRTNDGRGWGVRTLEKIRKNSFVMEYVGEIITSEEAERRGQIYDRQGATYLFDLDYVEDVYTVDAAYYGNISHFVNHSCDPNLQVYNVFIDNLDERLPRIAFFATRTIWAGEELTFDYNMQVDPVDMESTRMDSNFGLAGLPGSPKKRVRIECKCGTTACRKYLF
UniProt P63279: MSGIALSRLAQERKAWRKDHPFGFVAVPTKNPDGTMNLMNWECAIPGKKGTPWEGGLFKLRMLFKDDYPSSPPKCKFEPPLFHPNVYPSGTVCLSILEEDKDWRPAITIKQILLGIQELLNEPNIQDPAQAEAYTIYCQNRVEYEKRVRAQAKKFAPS

Molecular target: His-Suv39h1-1-167-EQEmut (mouse) (UniProt O54864)
Experiment: far-Western, overlay or dot blot; lysates of E. coli expressing His-Suv39h1 full-length and truncation fragments resolved by SDS-PAGE, transferred to nitrocellulose, denatured/renatured and incubated with purified recombinant GST fusion protein; bound protein detected with anti-GST; only the binder purified

binding: binds
Substance: GST-Ubc9 (from UniProt P63279 1-158) (enzyme)
